This is one part of the list.
Columns and labels:
Assay in all cases: glycan array binding signal (z-score within array); higher = stronger binding
Details in all cases: glycan notation: IUPAC condensed, linker removed
[1] = target: Fuc(a1-2)Gal
In short: (§1)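 Columns mapping to the same glycan were averaged after glycan names were converted to IUPAC-condensed notation. The data come from 3228 arrays in the Consortium for Functional Glycomics database, limited to those with an available protein sequence. Binding is reported as a within-array Z-score averaged across arrays of one protein sequence and across linkers.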

[2] = target: Fuc(a1-2)Gal(b1-3)GalNAc
In short: as §1

[3] = target: Fuc(a1-2)Gal(b1-3)GalNAc(a1-3)[Fuc(a1-2)]Gal(b1-4)Glc
In short: as §1

[4] = target: Fuc(a1-2)Gal(b1-3)GalNAc(a1-3)[Fuc(a1-2)]Gal(b1-4)GlcNAc
In short: as §1

[5] = target: Fuc(a1-2)Gal(b1-3)GalNAc(b1-3)Gal
In short: as §1

[6] = target: Fuc(a1-2)Gal(b1-3)GalNAc(b1-3)Gal(a1-4)Gal(b1-4)Glc
In short: as §1

[7] = target: Fuc(a1-2)Gal(b1-3)GalNAc(b1-4)[Neu5Ac(a2-3)]Gal(b1-4)Glc
In short: as §1

[8] = target: Fuc(a1-2)Gal(b1-3)GlcNAc
In short: as §1

[9] = target: Fuc(a1-2)Gal(b1-3)GlcNAc(b1-2)Man(a1-3)[Fuc(a1-2)Gal(b1-3)GlcNAc(b1-2)Man(a1-6)]Man(b1-4)GlcNAc(b1-4)GlcNAc
In short: as §1

[10] = target: Fuc(a1-2)Gal(b1-3)GlcNAc(b1-2)Man(a1-3)[Fuc(a1-2)Gal(b1-3)GlcNAc(b1-2)Man(a1-6)]Man(b1-4)GlcNAc(b1-4)[Fuc(a1-6)]GlcNAc
In short: as §1

[11] = target: Fuc(a1-2)Gal(b1-3)GlcNAc(b1-3)Gal(b1-4)Glc
In short: as §1

[12] = target: Fuc(a1-2)Gal(b1-3)GlcNAc(b1-3)GalNAc
In short: as §1

[13] = target: Fuc(a1-2)Gal(b1-3)GlcNAc(b1-3)[Fuc(a1-2)Gal(b1-3)GlcNAc(b1-6)]GalNAc
In short: as §1

[14] = target: Fuc(a1-2)Gal(b1-3)GlcNAc(b1-3)[Gal(b1-4)GlcNAc(b1-6)]Gal(b1-4)Glc
In short: as §1

[15] = target: Fuc(a1-2)Gal(b1-3)GlcNAc(b1-3)[Neu5Ac(a2-6)Gal(b1-4)GlcNAc(b1-6)]Gal(b1-4)Glc
In short: as §1

[16] = target: Fuc(a1-2)Gal(b1-3)GlcNAc6S
In short: as §1

[17] = target: Fuc(a1-2)Gal(b1-3)[Fuc(a1-4)]GlcNAc
In short: as §1

[18] = target: Fuc(a1-2)Gal(b1-3)[Fuc(a1-4)]GlcNAc(b1-2)Man(a1-3)[Fuc(a1-2)Gal(b1-3)[Fuc(a1-4)]GlcNAc(b1-2)Man(a1-3)]Man(b1-4)GlcNAc(b1-4)GlcNAc
In short: as §1

[19] = target: Fuc(a1-2)Gal(b1-3)[Fuc(a1-4)]GlcNAc(b1-2)Man(a1-3)[Fuc(a1-2)Gal(b1-3)[Fuc(a1-4)]GlcNAc(b1-2)Man(a1-6)]Man(b1-4)GlcNAc(b1-4)[Fuc(a1-6)]GlcNAc(b1-4)[Fuc(a1-6)]GlcNAc
In short: as §1

[20] = target: Fuc(a1-2)Gal(b1-3)[Fuc(a1-4)]GlcNAc(b1-3)[Fuc(a1-3)[Gal(b1-4)]GlcNAc(b1-6)]Gal(b1-4)Glc
In short: as §1

[21] = target: Fuc(a1-2)Gal(b1-3)[Fuc(a1-4)]GlcNAc(b1-3)[Gal(b1-4)GlcNAc(b1-6)]Gal(b1-4)Glc
In short: as §1

[22] = target: Fuc(a1-2)Gal(b1-4)Glc
In short: as §1

[23] = target: Fuc(a1-2)Gal(b1-4)Glc6S
In short: as §1

[24] = target: Fuc(a1-2)Gal(b1-4)GlcNAc
In short: as §1

[25] = target: Fuc(a1-2)Gal(b1-4)GlcNAc(b1-2)Man
In short: as §1

[26] = target: Fuc(a1-2)Gal(b1-4)GlcNAc(b1-2)Man(a1-3)[Fuc(a1-2)Gal(b1-4)GlcNAc(b1-2)Man(a1-6)]Man(b1-4)GlcNAc(b1-4)GlcNAc
In short: as §1

[27] = target: Fuc(a1-2)Gal(b1-4)GlcNAc(b1-2)Man(a1-3)[Fuc(a1-2)Gal(b1-4)GlcNAc(b1-2)Man(a1-6)]Man(b1-4)GlcNAc(b1-4)[Fuc(a1-6)]GlcNAc
In short: as §1

[28] = target: Fuc(a1-2)Gal(b1-4)GlcNAc(b1-2)[Fuc(a1-2)Gal(b1-4)GlcNAc(b1-4)]Man(a1-3)[Fuc(a1-2)Gal(b1-4)GlcNAc(b1-2)Man(a1-6)]Man(b1-4)GlcNAc(b1-4)GlcNAc
In short: as §1

[29] = target: Fuc(a1-2)Gal(b1-4)GlcNAc(b1-3)Gal(b1-4)GlcNAc
In short: as §1

[30] = target: Fuc(a1-2)Gal(b1-4)GlcNAc(b1-3)Gal(b1-4)GlcNAc(b1-2)Man(a1-3)[Fuc(a1-2)Gal(b1-4)GlcNAc(b1-3)Gal(b1-4)GlcNAc(b1-2)Man(a1-6)]Man(b1-4)GlcNAc(b1-4)GlcNAc
In short: as §1

[31] = target: Fuc(a1-2)Gal(b1-4)GlcNAc(b1-3)Gal(b1-4)GlcNAc(b1-3)Gal(b1-4)GlcNAc
In short: as §1

[32] = target: Fuc(a1-2)Gal(b1-4)GlcNAc(b1-3)GalNAc
In short: as §1

[33] = target: Fuc(a1-2)Gal(b1-4)GlcNAc(b1-3)[Fuc(a1-2)Gal(b1-4)GlcNAc(b1-6)]GalNAc
In short: as §1

[34] = target: Fuc(a1-2)Gal(b1-4)GlcNAc(b1-3)[Fuc(a1-3)[Gal(b1-4)]GlcNAc(b1-6)]Gal(b1-4)Glc
In short: as §1

[35] = target: Fuc(a1-2)Gal(b1-4)GlcNAc(b1-6)GalNAc
In short: as §1

[36] = target: Fuc(a1-2)Gal(b1-4)GlcNAc6S
In short: as §1

[37] = target: Fuc(a1-2)Gal(b1-4)[Fuc(a1-3)]GlcNAc
In short: as §1

[38] = target: Fuc(a1-2)Gal(b1-4)[Fuc(a1-3)]GlcNAc(b1-2)Man(a1-3)[Fuc(a1-2)Gal(b1-4)[Fuc(a1-3)]GlcNAc(b1-2)Man(a1-6)]Man(b1-4)GlcNAc(b1-4)[Fuc(a1-6)]GlcNAc
In short: as §1

[39] = target: Fuc(a1-2)Gal(b1-4)[Fuc(a1-3)]GlcNAc(b1-2)[Fuc(a1-2)Gal(b1-4)[Fuc(a1-3)]GlcNAc(b1-4)]Man(a1-3)[Fuc(a1-2)Gal(b1-4)[Fuc(a1-3)]GlcNAc(b1-2)Man(a1-6)]Man(b1-4)GlcNAc(b1-4)GlcNAc
In short: as §1

[40] = target: Fuc(a1-2)Gal(b1-4)[Fuc(a1-3)]GlcNAc(b1-3)Gal(b1-4)[Fuc(a1-3)]GlcNAc
In short: as §1

[41] = target: Fuc(a1-2)Gal(b1-4)[Fuc(a1-3)]GlcNAc(b1-3)Gal(b1-4)[Fuc(a1-3)]GlcNAc(b1-3)Gal(b1-4)[Fuc(a1-3)]GlcNAc
In short: as §1

[42] = target: Fuc(a1-2)Gal(b1-4)[Fuc(a1-3)]GlcNAc(b1-3)GalNAc
In short: as §1

[43] = target: Fuc(a1-2)Gal(b1-4)[Fuc(a1-3)]GlcNAc(b1-3)[Neu5Ac(a2-6)Gal(b1-4)GlcNAc(b1-6)]Gal(b1-4)Glc
In short: as §1

[44] = target: Fuc(a1-2)Gal3S(b1-4)GlcNAc
In short: as §1

[45] = target: Fuc(a1-2)Gal6S(b1-3)GlcNAc
In short: as §1

B1: Pbx2CASH domain (Cryptococcus neoformans) (protein)
chain: GIPGPNRLYRLSGPIIFTAADQEIATYGYPTGSERAVLRVEGRNTATAIQGDCRRCARVSVKNLVVDGNRKKLGRMRDFQLATGLVVLGGNEGQSIQNSWIKNPRGFTAIHIREGDKLQCSGARVEKNEIGPVGEEYDPEKDGDDPEMSPLGRPLADGVSIACRDSFIRDNTFRDNTDAAIVVYCSPGTLIHA
- glycan array binding signal (z-score) [1]: -0.39
- glycan array binding signal (z-score) [2]: -0.701
- glycan array binding signal (z-score) [3]: -0.168
- glycan array binding signal (z-score) [4]: 0.239
- glycan array binding signal (z-score) [5]: -0.599
- glycan array binding signal (z-score) [6]: -0.687
- glycan array binding signal (z-score) [7]: -0.327
- glycan array binding signal (z-score) [8]: -0.432
- glycan array binding signal (z-score) [9]: 0.289
- glycan array binding signal (z-score) [10]: -0.372
- glycan array binding signal (z-score) [11]: -0.355
- glycan array binding signal (z-score) [12]: 0.638
- glycan array binding signal (z-score) [13]: 0.475
- glycan array binding signal (z-score) [14]: -0.52
- glycan array binding signal (z-score) [15]: -0.145
- glycan array binding signal (z-score) [16]: 0.599
- glycan array binding signal (z-score) [17]: -0.752
- glycan array binding signal (z-score) [18]: 0.448
- glycan array binding signal (z-score) [19]: 0.191
- glycan array binding signal (z-score) [20]: -0.439
- glycan array binding signal (z-score) [21]: -0.27
- glycan array binding signal (z-score) [22]: -0.35
- glycan array binding signal (z-score) [23]: -0.514
- glycan array binding signal (z-score) [24]: -0.76
- glycan array binding signal (z-score) [25]: -0.067
- glycan array binding signal (z-score) [26]: 0.431
- glycan array binding signal (z-score) [27]: 0.625
- glycan array binding signal (z-score) [28]: 0.106
- glycan array binding signal (z-score) [29]: -0.675
- glycan array binding signal (z-score) [30]: -0.142
- glycan array binding signal (z-score) [31]: -0.508
- glycan array binding signal (z-score) [32]: -0.699
- glycan array binding signal (z-score) [33]: 0.278
- glycan array binding signal (z-score) [34]: 1.7
- glycan array binding signal (z-score) [35]: 0.269
- glycan array binding signal (z-score) [36]: -0.276
- glycan array binding signal (z-score) [37]: -0.029
- glycan array binding signal (z-score) [38]: 0.668
- glycan array binding signal (z-score) [39]: 0.686
- glycan array binding signal (z-score) [40]: 0.187
- glycan array binding signal (z-score) [41]: 0.29
- glycan array binding signal (z-score) [42]: 5.37
- glycan array binding signal (z-score) [43]: 0.299
- glycan array binding signal (z-score) [44]: -0.636
- glycan array binding signal (z-score) [45]: 0.95

— the supplement of paper PMC8728848
